# Test results published in patent US6664231B1 (priority 1993, dated 2003).
# Some peptides are written in HELM: one residue between dots, names in brackets for other building blocks, links after the first $. Square brackets hold non-standard residues; d marks the D form. Phe(4-NH2) = Nc1ccc(C[C@H](N)C(=O)O)cc1; 1Nal = N[C@@H](Cc1cccc2ccccc12)C(=O)O; d1Nal = N[C@H](Cc1cccc2ccccc12)C(=O)O; d2Nal = N[C@H](Cc1ccc2ccccc2c1)C(=O)O; Abu = CC[C@H](N)C(=O)O; Aib = CC(C)(N)C(=O)O
# Experiment: general procedure: Fmoc solid-phase peptide synthesis; polystyrene resin, 1% DVB, Fmoc-Rink amide linker, 0.44 mmoles/gram; DIC/HOBt and HBTU/HOBt/DIEA (double coupling)
# Conditions: whole synthesis, scale of the general procedure between 0.1 grams and 5 grams of starting resin
Substance,crude HPLC purity,final HPLC purity
H-KSKVGWLITLFHKK-NH2,26%,–
H-KSKVAWLIQLFHKK-NH2,72%,–
C-148-161-C (CKSKVGWLIQLFHKKC),28%,–
PEPTIDE1{K.W.L.I.Q.L.K.K.[am]}$$$$V2.0,67%,–
H-KSKVKFLIKLFHKK-NH2,36%,–
H-KSKVGWLILLFHKKKSKVGWLILLFHKK-NH2,32%,–
PEPTIDE1{K.S.K.V.G.V.A.I.Q.L.F.H.K.K.[am]}$$$$V2.0,62%,95%
H-KSKVGWLIQFFHKK-NH2,46%,–
H-IQLFHK-NH2,84%,–
H-KSKVGVLIQLFHKK-NH2,68%,–
H-KSKVG[Abu]LIQLFHKK-NH2 (SMILES CC[C@H](NC(=O)CNC(=O)[C@@H](NC(=O)[C@H](CCCCN)NC(=O)[C@H](CO)NC(=O)[C@@H](N)CCCCN)C(C)C)C(=O)N[C@@H](CC(C)C)C(=O)N[C@H](C(=O)N[C@@H](CCC(N)=O)C(=O)N[C@@H](CC(C)C)C(=O)N[C@@H](Cc1ccccc1)C(=O)N[C@@H](Cc1c[nH]cn1)C(=O)N[C@@H](CCCCN)C(=O)N[C@@H](CCCCN)C(N)=O)[C@@H](C)CC),44%,94%
H-KKWLIQL-NH2,66%,–
H-KSKVGWLIQ[1Nal]FHK[1Nal]-NH2 (SMILES CC[C@H](C)[C@H](NC(=O)[C@H](CC(C)C)NC(=O)[C@H](Cc1c[nH]c2ccccc12)NC(=O)CNC(=O)[C@@H](NC(=O)[C@H](CCCCN)NC(=O)[C@H](CO)NC(=O)[C@@H](N)CCCCN)C(C)C)C(=O)N[C@@H](CCC(N)=O)C(=O)N[C@@H](Cc1cccc2ccccc12)C(=O)N[C@@H](Cc1ccccc1)C(=O)N[C@@H](Cc1c[nH]cn1)C(=O)N[C@@H](CCCCN)C(=O)N[C@@H](Cc1cccc2ccccc12)C(N)=O),54%,–
H-KSKVFWLIQLFHKK-NH2,57%,–
H-QLFHKK-NH2,73%,–
H-KSKVGWLI[Phe(4-NH2)]LFHKK-NH2 (SMILES CC[C@H](C)[C@H](NC(=O)[C@H](CC(C)C)NC(=O)[C@H](Cc1c[nH]c2ccccc12)NC(=O)CNC(=O)[C@@H](NC(=O)[C@H](CCCCN)NC(=O)[C@H](CO)NC(=O)[C@@H](N)CCCCN)C(C)C)C(=O)N[C@@H](Cc1ccc(N)cc1)C(=O)N[C@@H](CC(C)C)C(=O)N[C@@H](Cc1ccccc1)C(=O)N[C@@H](Cc1c[nH]cn1)C(=O)N[C@@H](CCCCN)C(=O)N[C@@H](CCCCN)C(N)=O),64%,–
H-KSKVGWLIFLFHKKKSKVGWLIQLFHKK-NH2,59%,–
H-KSKVGWLIQLFHKF-NH2,60%,–
"150-161, P @ 152 (G) (KVPWLIQLFHKK)",–,98%

Substance,crude HPLC purity,final HPLC purity
H-KSKVGWLIALFHKK-NH2,53%,–
H-KSKVKVAIQLFHKK-NH2,30%,–
H-KSKVGWLIRLFHKK-NH2,42%,–
H-GWLIQLFHKKIESALRNKMNS-NH2,28%,–
H-KSKVGWLINLFHKK-NH2,68%,–
H-KSKVG[d2Nal]LILLWHKK-NH2 (SMILES CC[C@H](C)[C@H](NC(=O)[C@H](CC(C)C)NC(=O)[C@@H](Cc1ccc2ccccc2c1)NC(=O)CNC(=O)[C@@H](NC(=O)[C@H](CCCCN)NC(=O)[C@H](CO)NC(=O)[C@@H](N)CCCCN)C(C)C)C(=O)N[C@@H](CC(C)C)C(=O)N[C@@H](CC(C)C)C(=O)N[C@@H](Cc1c[nH]c2ccccc12)C(=O)N[C@@H](Cc1c[nH]cn1)C(=O)N[C@@H](CCCCN)C(=O)N[C@@H](CCCCN)C(N)=O),43%,–
H-KSKVGWLIQLF[1Nal]KK-NH2 (SMILES CC[C@H](C)[C@H](NC(=O)[C@H](CC(C)C)NC(=O)[C@H](Cc1c[nH]c2ccccc12)NC(=O)CNC(=O)[C@@H](NC(=O)[C@H](CCCCN)NC(=O)[C@H](CO)NC(=O)[C@@H](N)CCCCN)C(C)C)C(=O)N[C@@H](CCC(N)=O)C(=O)N[C@@H](CC(C)C)C(=O)N[C@@H](Cc1ccccc1)C(=O)N[C@@H](Cc1cccc2ccccc12)C(=O)N[C@@H](CCCCN)C(=O)N[C@@H](CCCCN)C(N)=O),56%,–
H-KSKVG[Aib]LIQLFHKK-NH2 (SMILES CC[C@H](C)[C@H](NC(=O)[C@H](CC(C)C)NC(=O)C(C)(C)NC(=O)CNC(=O)[C@@H](NC(=O)[C@H](CCCCN)NC(=O)[C@H](CO)NC(=O)[C@@H](N)CCCCN)C(C)C)C(=O)N[C@@H](CCC(N)=O)C(=O)N[C@@H](CC(C)C)C(=O)N[C@@H](Cc1ccccc1)C(=O)N[C@@H](Cc1c[nH]cn1)C(=O)N[C@@H](CCCCN)C(=O)N[C@@H](CCCCN)C(N)=O),44%,–
H-KSKVGWLIQLFHKA-NH2,70%,–
H-KSKVLWLIQLFHKK-NH2,74%,–
H-KSKVGWAIQLFHKK-NH2,51%,–
H-KSKVK[1Nal]LIQLFHKK-NH2 (SMILES CC[C@H](C)[C@H](NC(=O)[C@H](CC(C)C)NC(=O)[C@H](Cc1cccc2ccccc12)NC(=O)[C@H](CCCCN)NC(=O)[C@@H](NC(=O)[C@H](CCCCN)NC(=O)[C@H](CO)NC(=O)[C@@H](N)CCCCN)C(C)C)C(=O)N[C@@H](CCC(N)=O)C(=O)N[C@@H](CC(C)C)C(=O)N[C@@H](Cc1ccccc1)C(=O)N[C@@H](Cc1c[nH]cn1)C(=O)N[C@@H](CCCCN)C(=O)N[C@@H](CCCCN)C(N)=O),72%,–
H-KSKVGWLIDLFHKK-NH2,60%,–
H-KAKVGWLIQLFHKK-NH2,70%,–
H-KSKVGWLIQLFAKK-NH2,59%,–
K - K - L - L - Q - L - L - K - K (KKLLQLLKK),–,99%
H-KSKVKWLIQLWHKK-NH2,67%,–
H-KSKVGWLIQ[1Nal]F[1Nal]KK-NH2 (SMILES CC[C@H](C)[C@H](NC(=O)[C@H](CC(C)C)NC(=O)[C@H](Cc1c[nH]c2ccccc12)NC(=O)CNC(=O)[C@@H](NC(=O)[C@H](CCCCN)NC(=O)[C@H](CO)NC(=O)[C@@H](N)CCCCN)C(C)C)C(=O)N[C@@H](CCC(N)=O)C(=O)N[C@@H](Cc1cccc2ccccc12)C(=O)N[C@@H](Cc1ccccc1)C(=O)N[C@@H](Cc1cccc2ccccc12)C(=O)N[C@@H](CCCCN)C(=O)N[C@@H](CCCCN)C(N)=O),44%,–
K - K - Q - L - L - L - L - K - K (KKQLLLLKK),–,99%

Substance,crude HPLC purity,final HPLC purity
H-KWLIQLFHKP-NH2,64%,98%
H-KSKVGWLIQ[1Nal]WHKK-NH2 (SMILES CC[C@H](C)[C@H](NC(=O)[C@H](CC(C)C)NC(=O)[C@H](Cc1c[nH]c2ccccc12)NC(=O)CNC(=O)[C@@H](NC(=O)[C@H](CCCCN)NC(=O)[C@H](CO)NC(=O)[C@@H](N)CCCCN)C(C)C)C(=O)N[C@@H](CCC(N)=O)C(=O)N[C@@H](Cc1cccc2ccccc12)C(=O)N[C@@H](Cc1c[nH]c2ccccc12)C(=O)N[C@@H](Cc1c[nH]cn1)C(=O)N[C@@H](CCCCN)C(=O)N[C@@H](CCCCN)C(N)=O),34%,–
H-KSKVGGLIQLFHKK-NH2,46%,–
H-KSKVGWLIELFHKK-NH2,49%,–
H-KKKWLIQLKKK-NH2,65%,98%
H-WLIQLKK-NH2,69%,–
H-KSKVG[dA]LIQLFHKK-NH2 (SMILES CC[C@H](C)[C@H](NC(=O)[C@H](CC(C)C)NC(=O)[C@@H](C)NC(=O)CNC(=O)[C@@H](NC(=O)[C@H](CCCCN)NC(=O)[C@H](CO)NC(=O)[C@@H](N)CCCCN)C(C)C)C(=O)N[C@@H](CCC(N)=O)C(=O)N[C@@H](CC(C)C)C(=O)N[C@@H](Cc1ccccc1)C(=O)N[C@@H](Cc1c[nH]cn1)C(=O)N[C@@H](CCCCN)C(=O)N[C@@H](CCCCN)C(N)=O),52%,–
H-KSKVG[d1Nal]LIQLFHKK-NH2 (SMILES CC[C@H](C)[C@H](NC(=O)[C@H](CC(C)C)NC(=O)[C@@H](Cc1cccc2ccccc12)NC(=O)CNC(=O)[C@@H](NC(=O)[C@H](CCCCN)NC(=O)[C@H](CO)NC(=O)[C@@H](N)CCCCN)C(C)C)C(=O)N[C@@H](CCC(N)=O)C(=O)N[C@@H](CC(C)C)C(=O)N[C@@H](Cc1ccccc1)C(=O)N[C@@H](Cc1c[nH]cn1)C(=O)N[C@@H](CCCCN)C(=O)N[C@@H](CCCCN)C(N)=O),28%,–
H-KSKVGWLIQLFFKK-NH2,59%,–
H-KSKVGLLIQLFHKK-NH2,33%,–
H-KSKVGWLIFLFHKK-NH2,31%,–
H-KSKVGYLIQLFHKK-NH2,60%,–
H-KSKVG[1Nal]LIQLFHK[1Nal]-NH2 (SMILES CC[C@H](C)[C@H](NC(=O)[C@H](CC(C)C)NC(=O)[C@H](Cc1cccc2ccccc12)NC(=O)CNC(=O)[C@@H](NC(=O)[C@H](CCCCN)NC(=O)[C@H](CO)NC(=O)[C@@H](N)CCCCN)C(C)C)C(=O)N[C@@H](CCC(N)=O)C(=O)N[C@@H](CC(C)C)C(=O)N[C@@H](Cc1ccccc1)C(=O)N[C@@H](Cc1c[nH]cn1)C(=O)N[C@@H](CCCCN)C(=O)N[C@@H](Cc1cccc2ccccc12)C(N)=O),57%,>99%
H-KSKVKVLIQLFHKK-NH2,52%,–
H-KSKVGILIQLFHKK-NH2,44%,–
H-KSKVGWLIQ[1Nal]FHKK-NH2 (SMILES CC[C@H](C)[C@H](NC(=O)[C@H](CC(C)C)NC(=O)[C@H](Cc1c[nH]c2ccccc12)NC(=O)CNC(=O)[C@@H](NC(=O)[C@H](CCCCN)NC(=O)[C@H](CO)NC(=O)[C@@H](N)CCCCN)C(C)C)C(=O)N[C@@H](CCC(N)=O)C(=O)N[C@@H](Cc1cccc2ccccc12)C(=O)N[C@@H](Cc1ccccc1)C(=O)N[C@@H](Cc1c[nH]cn1)C(=O)N[C@@H](CCCCN)C(=O)N[C@@H](CCCCN)C(N)=O),65%,–
H-PWAIQLFHKK-NH2,–,93%
H-KSKV[Phe(4-NH2)]WLIQ[1Nal]FHKK-NH2 (SMILES CC[C@H](C)[C@H](NC(=O)[C@H](CC(C)C)NC(=O)[C@H](Cc1c[nH]c2ccccc12)NC(=O)[C@H](Cc1ccc(N)cc1)NC(=O)[C@@H](NC(=O)[C@H](CCCCN)NC(=O)[C@H](CO)NC(=O)[C@@H](N)CCCCN)C(C)C)C(=O)N[C@@H](CCC(N)=O)C(=O)N[C@@H](Cc1cccc2ccccc12)C(=O)N[C@@H](Cc1ccccc1)C(=O)N[C@@H](Cc1c[nH]cn1)C(=O)N[C@@H](CCCCN)C(=O)N[C@@H](CCCCN)C(N)=O),73%,–
